# ± gives the standard deviation. This is a selection; strong and weak results do not stand in their true shares. The uncertainty is large for many entries. Some of the results follow.
# Assays:
# [1] = test system: MILI (PIWIL2) piRISC loaded with L1MC piRNA (26 nt); experiment: pre-steady-state target cleavage rate (min^-1); higher = faster piRNA-guided slicing of the target; settings: guide: L1MC piRNA 5'p-UAACUAAAUACUAUGCAAGCUGUAGG
# Summary of the method: (§1)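 With or without 500 nM GTSF1 partner protein, 1 nM active affinity-purified piRISC carrying one synthetic guide was mixed with 0.1 nM transcribed, DNA-blocked target RNA library in HEPES–potassium acetate buffer at 33 °C for 0–8 or 0–960 min. Uncleaved targets were sequenced and normalised to depth and to weakly complementary targets, three trials were pooled, and k3 was capped at 0.0001 min^-1. The pre-steady-state cleavage rate came from a burst-and-steady-state fit.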
# [2] = test system: EfPiwi piRISC loaded with L1MC piRNA (26 nt); experiment: pre-steady-state target cleavage rate (min^-1); guide: L1MC piRNA 5'p-UAACUAAAUACUAUGCAAGCUGUAGG; MIWI and MILI are mouse PIWI proteins and EfPiwi is from a freshwater sponge; tags in brackets are library labels; higher = faster piRNA-guided slicing of the target
# Summary of the method: as §1
# [3] = auxiliary factor: 500 nM mouse GTSF1
# [4] = auxiliary factor: none (no GTSF1)
# [5] = auxiliary factor: 500 nM Ephydatia muelleri Gtsf1
# [6] = auxiliary factor: none (no Gtsf1)
Sequence,"pre-steady-state target cleavage rate [1, 3]","pre-steady-state target cleavage rate [1, 4]","pre-steady-state target cleavage rate [2, 5]","pre-steady-state target cleavage rate [2, 6]"
UCCUGGAUGUGCUUGCAUAGGAUUUAGUUA,0.0028 ± 0.0045,0.00188 ± 0.0037,0.000624 ± 0.0053,0.000507 ± 0.019
UCCUGGAACUCGUUGCAUAGUAUUUAGUUA,0.154 ± 0.018,0.00417 ± 0.0024,0.00531 ± 0.0017,< 0.0001
UCCUGGAUCAGCUUCCAUAGUAUUUACUUA,0.00216 ± 0.0049,0.000345 ± 0.018,0.000589 ± 0.0079,0.000187 ± 0.034
UCCUGGAACAGCAUGCAUAGUUUUUAGUUA,0.0418 ± 0.011,0.00553 ± 0.0023,0.00387 ± 0.0016,0.000326 ± 0.028
UCCUGGAUCAGCUUGCAUAGUAUUUUCUUA,0.0452 ± 0.013,0.00144 ± 0.0038,0.00156 ± 0.0022,0.00033 ± 0.02
UCCUGGAUGUGCUUGCAUAGUAUUGAGUUA,0.0612 ± 0.019,0.00196 ± 0.0044,0.00273 ± 0.0022,0.000381 ± 0.029
UCCUGGUACAGCAUGGAUAGUAUUUAGUUA,0.197 ± 0.019,0.0172 ± 0.0046,0.00254 ± 0.0031,0.000789 ± 0.011
UCCUGGAACAGGUUGCAUAGUAUUAAGUUA,0.213 ± 0.023,0.00415 ± 0.0022,0.00329 ± 0.0021,0.000662 ± 0.011
UCCUGGAAGAGCUAGCAUAGUAUUUAGUUA,0.212 ± 0.016,0.00677 ± 0.0024,0.00727 ± 0.0022,0.000927 ± 0.012
UCCUGGUACAGCUUGCAUAGUAUUUACUUA,0.103 ± 0.025,0.00236 ± 0.0042,0.000778 ± 0.0099,0.000796 ± 0.015
UCCUGGAUGUCCUUGCAUAGUAUUUAGUAUA,0.191 ± 0.03,0.00617 ± 0.0026,0.00442 ± 0.0031,0.000106 ± 0.07
UCCUGGAACAGCUUGCAUAGUAUUUGAGUUA,0.209 ± 0.035,0.00299 ± 0.003,0.00552 ± 0.0019,0.000845 ± 0.01
UCCUGGAUCUGCUUGCAUAGUAUUUACAAA,0.104 ± 0.022,0.00101 ± 0.0055,0.000564 ± 0.0086,0.000392 ± 0.014
UCCUGGAUGUCGAACGUAUGGUAUUUAGUUA,0.00101 ± 0.0084,0.000831 ± 0.0077,0.000667 ± 0.012,0.000304 ± 0.021
UCCUGCUAGAGCUUGCAAAGUAUUUAGUUA,0.112 ± 0.012,0.00382 ± 0.0021,0.00607 ± 0.0018,0.00104 ± 0.0076
UCCUCCUACAGCUAGCAUUGUAUUUAGUUA,0.184 ± 0.013,0.00496 ± 0.0019,0.0127 ± 0.0042,0.000871 ± 0.0072
UCCUGGAACAGCUUGCAUAGUUUUUAGUUA,0.0586 ± 0.01,0.00493 ± 0.0022,0.00683 ± 0.0019,0.000817 ± 0.0085
UCCUGGUACAGCAUUGCAUAGUAUUUAGUUA,0.257 ± 0.039,0.0159 ± 0.0049,0.0107 ± 0.004,0.00122 ± 0.011
UCCUGGUACAGCUUGCAUAGUAUUUUGUUA,0.118 ± 0.024,0.00398 ± 0.0037,0.00618 ± 0.003,0.00091 ± 0.013
UCCUGGUACAGCUUGCGUAGUAUUUAGUUA,0.219 ± 0.021,0.014 ± 0.004,0.0273 ± 0.0095,0.000576 ± 0.027
UCCUGCAACAGCUUGCAUAGUAUUUACUUA,0.122 ± 0.012,0.00262 ± 0.0035,0.00226 ± 0.003,0.000212 ± 0.023

# Individual results from the list.
# Value for UCCUGGAACAGCUUGCAUAGUAUUUGAGUUA under pre-steady-state target cleavage rate [1, 3]: 0.209 ± 0.035
# Value for UCCUGGAUGUGCUUGCAUAGGAUUUAGUUA under pre-steady-state target cleavage rate [2, 5]: 0.000624 ± 0.0053

# Reference: the supplement of paper PMC10338343
